Laboratory results: PubChem BioAssay AID493014 (National Center for Advancing Translational Sciences (NCATS), 2011)
Screen size: about 340,000 compounds; about 170 (0.05%) were called active. The inconclusive results got no clear call from the source; some entries with a clear call stand among them for comparison. The call rests on the fitted dose curve; in most records, active means well fitted inhibition curve with a large enough effect in the signal ratio, with a control signal flat (not every such curve was filed as active); inconclusive means small, poorly fitted or top-dose-only effect, or effect the other way, or a change in a side signal; inactive means flat fitted curve, though single readings scatter; the % refers to the signal ratio. Potencies beside an inconclusive call are fits to weak or partial responses and may not hold up.

Assay: qHTS Assay to Find Inhibitors of Chronic Active B-Cell Receptor Signaling;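 on activity change, negative = inhibition: plate controls were basal doxycycline-induced cells for no effect and cells given 10 µM MG132 for full effect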
Settings: ABC-DLBCL IkBa-CBG/CBR reporter, luminescence ratio (green luciferase fused to IkBa over red control in TMD8 lymphoma cells), 4 h; activity change, negative = inhibition: at 46.1 µM (top of the series) unless noted
Outline: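 Doxycycline induced both beetle luciferases in TMD8 lymphoma cells; IKK-driven degradation limits the IkappaBalpha-fused green signal, while red luminescence normalises for cell number and nonspecific effects. Compounds tested up to 46 uM, 4 hrs.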
Potency means the concentration at half of the fitted maximal effect.

Row | SMILES | activity change, negative = inhibition | Potency
1 | COC(=O)Cc1ccc(NC(=S)NC2CC2)cc1 | inconclusive: 5.39% | –
2 | COc1cccc(C(=O)NNC(=O)C2CCCO2)c1 (configuration not stated) | – | inconclusive: 20 µM [falling, partial curve, poor fit]
3 | CC(=NNC(=O)c1ccc(NS(=O)(=O)c2ccc(Br)cc2)cc1)c1cccnc1 | inconclusive: -9.75% | –
4 | Cc1csc(NC(=O)CCNC(=O)c2ccccc2Cl)n1 | inconclusive: -0.161% | –
5 | CN(C)C(=O)c1ccc2c(c1)C1C3CCC(C3)C1C(c1ccccc1)N2 (configuration not stated) | inconclusive: -9.32% | –
6 | CC(/C=C/c1ccccc1)=N/NC(=O)c1cnccn1 | inconclusive: -1.72% | –
7 | O=C(CCS(=O)(=O)c1ccccc1)Nc1ccc(-c2nc3ccccc3s2)cc1 | – | inconclusive: 0.291 µM [falling, full curve]
8 | O=C(C1CCN(S(=O)(=O)c2c(Cl)cccc2Cl)CC1)N1CCCCCCC1 | inactive | –
9 | Cc1nc(-c2ccccc2)sc1-c1nc(-c2ccncc2)ncc1S(=O)(=O)c1ccccc1 | inconclusive: 21.7% | –
10 | O=C(NNC(=O)c1cccs1)c1cccc(F)c1 | – | inconclusive: 17.8 µM [falling, partial curve]
11 | Cc1sc2ncnc(Sc3nnnn3-c3ccccc3)c2c1C | – | inconclusive: 7.08 µM [falling, partial curve, poor fit]
12 | CCOC(=O)N1CCC(N2CCN(S(=O)(=O)c3ccc(Cl)cc3)CC2)CC1 | – | inconclusive: 4.61 µM [falling, single point]
13 | O=C(O)c1cc(-c2ccccc2)n(-c2ccc(Cl)cc2Cl)n1 | inconclusive: -1.73% | –
14 | CC(=O)Nc1ccc(-c2cn3cc(C)ccc3n2)cc1 | inactive | –
15 | O=C(O)C(Cc1ccccc1)N=Cc1c(O)c2ccccc2oc1=O (configuration not stated) | – | inconclusive: 11.2 µM [falling, partial curve]
16 | Cc1ccc(OCC(=O)Nc2ccc(N3CCN(C(=O)c4ccco4)CC3)cc2)cc1C | – | inconclusive: 35.5 µM [falling, single point]
17 | COCCNC(=O)c1cn(C)c2ccc(S(=O)(=O)N(C)C3CCCCC3)cc2c1=O | inactive | –
18 | Cc1ccc(/C=C/c2nc3ccccc3n2S(=O)(=O)c2ccc(Br)cc2)cc1 | – | inconclusive: 35.5 µM [rising, single point]
19 | Cc1csc(NC(=O)c2cccc(S(=O)(=O)N3CCCCC3)c2)n1 | inconclusive: 11.3% | –
20 | O=C(C1CC1)N1CCc2cc(Br)cc(S(=O)(=O)NCc3ccc4c(c3)OCO4)c21 | inconclusive: -2.18% | –
21 | COc1ccccc1N1C(=O)[C@@H]2[C@H](C1=O)[C@H](C(=O)c1ccc(OC(C)=O)cc1)N1N=CC=C[C@@H]21 | – | inconclusive: 15.8 µM [falling, partial curve]

Row | SMILES | activity change, negative = inhibition | Potency
22 | CC(=O)Nc1ccc(NCN2C(=O)[C@@H]3[C@H]4CC[C@H](C4)[C@@H]3C2=O)cc1 | inconclusive: 10.6% | –
23 | CCOC(=O)N1CCc2c(sc(NC(=O)c3ccc(Cl)s3)c2C(N)=O)C1 | inconclusive: 25.1% | –
24 | O=S(=O)(Nc1ccc(O)c2ccccc12)c1cccs1 | inconclusive: -0.309% | –
25 | Cc1nc(Cl)c(C(=O)NC(=O)Nc2cccc(C(F)(F)F)c2)c(C)c1[N+](=O)[O-] | inconclusive: -0.74% | –
26 | CCOC(=O)c1nnn(-c2nc(N(C)C)nc(N(C)C)n2)c1C | inactive | –
27 | O=C(Cc1cccs1)NCc1cccc(Br)c1 | inconclusive: 7.64% | –
28 | CC(=O)Oc1ccc(C(=O)Nc2cc(C)on2)cc1 | inconclusive: -5.82% | –
29 | CCc1c(-c2ccccc2)nc2nc(C)c(C)nn12 | – | inconclusive: 3.66 µM [rising, full curve, poor fit]
30 | CCNC(=S)N1CCC(Cc2ccccc2)CC1 | inconclusive: -7.66% | –
31 | COc1ccc(CC(=O)Nc2ccc(C(=O)Nc3ccccc3C(=O)O)cc2)cc1OC | – | inconclusive: 23.1 µM [falling, single point]
32 | COc1cccc(N(C(=O)Cc2cccs2)C(C(=O)NC2CCCC2)c2ccncc2)c1 (configuration not stated) | inconclusive: 4.3% | –
33 | CCNc1nc(NC(C)C)nc(N(C#N)Cc2ccccc2)n1 | inconclusive: -2.63% | –
34 | CCOc1ccccc1NC(=O)CSc1n[nH]c(N)n1 | inconclusive: -13.5% | –
35 | CCOP(=O)(OCC)C(Nc1cccc(C(F)(F)F)c1)c1ccc(Br)cc1 (configuration not stated) | inconclusive: 0.265% | –
36 | COc1ccccc1CNC(=O)C1CCC1 | inactive | –
37 | CC(=O)Nc1ccc(NC(=O)c2nc(-c3ccccc3)oc2C)cc1 | inconclusive: 3.03% | –
38 | COc1ccc(-c2nc(CS(=O)CC(=O)NCCCN3CCOCC3)c(C)o2)cc1OC (configuration not stated) | inconclusive: -0.593% | –
39 | Cc1cc(C(=O)NN)c(Cl)cc1Cl | inactive | –
40 | CSc1ccc(/C=C/c2nc3ccccc3n2S(=O)(=O)c2ccc(F)c(C)c2)cc1 | – | inconclusive: 35.5 µM [rising, single point]
41 | NC(=O)c1ccc(Cn2c(C(=O)c3ccc(Cl)cc3)c3ccccc3[n+]2[O-])cc1 | inconclusive: 4.02% | –
42 | O=C(NCc1ccc(F)cc1)Nc1cccc([N+](=O)[O-])c1 | inconclusive: 6.63% | –

Some of these compounds in order of count of non-hydrogen atoms, low to high:
Row | SMILES | activity change, negative = inhibition | Potency
36 | COc1ccccc1CNC(=O)C1CCC1 | inactive | –
28 | CC(=O)Oc1ccc(C(=O)Nc2cc(C)on2)cc1 | inconclusive: -5.82% | –
40 | CSc1ccc(/C=C/c2nc3ccccc3n2S(=O)(=O)c2ccc(F)c(C)c2)cc1 | – | inconclusive: 35.5 µM [rising, single point]

(more compounds)

Row | SMILES | activity change, negative = inhibition | Potency
43 | O=C(/C=C/c1ccc([N+](=O)[O-])s1)N1CCN(c2ccccc2)CC1 | inactive | –
44 | O=C1ON=C(c2ccc([N+](=O)[O-])cc2)/C1=C/c1ccccc1O | inactive | –
45 | Cc1ccc2c(NC(=S)NC(=O)c3ccccc3)cccc2n1 | inconclusive: -8.99% | –
46 | COc1ccccc1-c1cc(C(=O)NCc2ccc(Cl)cc2)no1 | – | inconclusive: 10 µM [falling, partial curve, poor fit]
47 | Fc1ccc(/C=N/Nc2cc(N3CCOCC3)ncn2)cc1 | inconclusive: 9.9% | –
48 | CCN1C(=O)c2ccccc2S(=O)c2ccc(C(=O)NCCN(CC(C)C)CC(C)C)cc21 (configuration not stated) | inconclusive: -0.699% | –
49 | CCOC(=O)N1CCC(NC(=S)Nc2ccc3nc(N4CCN(CC)CC4)cc(C)c3c2)CC1 | inconclusive: -2.87% | –
50 | CC1=C([N+](=O)[O-])C(c2cccc(Br)c2)C2=C(N1)c1ccccc1C2=O (configuration not stated) | inconclusive: -25.2% | –
51 | COc1ccccc1C(=O)NCCC(=O)NCC1COc2ccccc2O1 (configuration not stated) | inconclusive: 1.79% | –
52 | CNC(=O)NC(=O)C(C)OC(=O)CCCSc1nc2ccccc2s1 (configuration not stated) | inconclusive: 17% | –
53 | CCc1ccc(NC(=O)NCCCN2CCCC2=O)cc1 | inactive | –
54 | CCOc1cc(CN2CCN(c3cccc(C(F)(F)F)c3)CC2)ccc1OC | – | inconclusive: 25.9 µM [falling, partial curve, poor fit]
55 | Cc1ccc(-c2cc(C(=O)Nc3ccc(S(=O)(=O)Nc4nccs4)cc3)c3ccccc3n2)c(C)c1 | inconclusive: 1.92% | –
56 | NC(=O)c1cccnc1Sc1ccc(Cl)cc1 | inconclusive: 0.076% | –
57 | CCOCCCNC(=O)C(NC(=O)CNC(C)=O)c1ccc(C)cc1 (configuration not stated) | inconclusive: 5% | –
58 | CN(C)c1ccc(-c2noc(-c3ccccc3O)n2)cc1 | – | inconclusive: 0.631 µM [falling, full curve, poor fit]
59 | C=CCSc1nc(C)c(CCCC)c(=O)[nH]1 | inconclusive: 8.01% | –
60 | O=C(CSc1nncc2ccccc12)N1CCOCC1 | inconclusive: -10.6% | –
61 | CCn1c(O)c(N=N)c2ccccc21 | inactive | –
62 | COC(=O)C1=C(C)N(Cc2ccc(C)cc2)C(=O)/C1=C\c1cc(OC)c(OC)c(OC)c1 | – | inconclusive: 20.6 µM [falling, single point]
63 | CC1CCN(c2ccc(C(=O)NCc3ccco3)cc2[N+](=O)[O-])CC1 | inconclusive: 8.43% | –

As entered above.
For activity change, negative = inhibition, `C=CCSc1nc(C)c(CCCC)c(=O)[nH]1` reads inconclusive: 8.01%
For activity change, negative = inhibition, `COc1ccccc1C(=O)NCCC(=O)NCC1COc2ccccc2O1` (configuration not stated) reads inconclusive: 1.79%
For activity change, negative = inhibition, `CNC(=O)NC(=O)C(C)OC(=O)CCCSc1nc2ccccc2s1` (configuration not stated) reads inconclusive: 17%

Next part

Row | SMILES | activity change, negative = inhibition | Potency
64 | Cc1cccc(NC(=O)CSc2nc(C)c(Cc3ccccc3)c(=O)[nH]2)c1C | inconclusive: 8.71% | –
65 | CCNS(=O)(=O)c1cc(OC)c(Cl)cc1OC | inconclusive: -0.298% | –
66 | COc1ccc(C(=O)OCCNC(=O)c2ccncc2)cc1OC | inconclusive: -0.693% | –
67 | NC(N)=N/N=C/c1ccc(OCc2ccccc2)cc1 | inconclusive: -24.9% | –
68 | CC(=O)c1c(C)[nH]c(C(=O)Nc2ccc(C)cn2)c1C | inconclusive: 18.2% | –
69 | Cc1cc(C)c(C(=O)N2CCC(N3CCC(C(=O)NC(C)C)CC3)CC2)o1 | inactive | –
70 | O=C(CCc1nc2ccccc2s1)N1CCN(c2ccccc2)CC1 | inconclusive: 5.29% | –
71 | Cc1cccc(-n2nnnc2SCC(=O)Nc2cccc(S(N)(=O)=O)c2)c1 | – | inconclusive: 22.4 µM [falling, single point]
72 | O=C(Cc1ccc(F)cc1)NCCS(=O)(=O)N1CCN(c2cccc(Cl)c2)CC1 | inactive | –
73 | CCN1C(N(C)CCc2cccs2)=N[C@@H](c2ccccc2)C(C(=O)OC)=C1C | inconclusive: -1.49% | –
74 | COc1cc(OC)c(C2=NOC(C(=O)Nc3cc(C)nn3-c3ccccc3)C2)cc1Cl (configuration not stated) | inconclusive: 2.04% | –
75 | COC(=O)c1ccc(COC(=O)CNC(=O)c2ccc(OC)cc2)cc1 | – | inconclusive: 23.1 µM [falling, single point]
76 | CCN(CC)C(=O)c1cnn(-c2ccccc2)c1NC(=O)c1cccc(F)c1 | inconclusive: -11.4% | –
77 | Cc1ccc(SCC(=O)Nc2ccc(-c3nc4ccccc4[nH]3)cc2)cc1 | inactive | –
78 | CCOc1ccc(/C=C(\C#N)C(=O)Nc2cccnc2)cc1 | inactive | –
79 | COc1ccc(N2CCN(S(=O)(=O)c3ccc(Cl)s3)CC2)cc1 | inconclusive: 21.9% | –
80 | COc1c(Cl)cc(-c2noc(C)c2C(=O)NC(C)C)cc1Cl | inconclusive: 3.69% | –
81 | Cc1cc(N2CCOCC2)nc(-c2ccccc2O)n1 | – | inconclusive: 18.4 µM [rising, partial curve, poor fit]
82 | COc1ccc(C(CCNC(C)c2ccccc2)c2ccc(F)cc2)cc1 (configuration not stated) | inconclusive: 10.7% | –
